The campaign covered roughly 300,000 compounds. About 3,700 (1.2%) were called active. This list was built around the results that the source calls inconclusive (neither active nor inactive); the mix of calls is not that of the screen. Calls follow the shape of the full dose curve; tested in HEK293 cells. Potencies beside an inconclusive call are fits to weak or partial responses and may not hold up.
Assay: qHTS for Inhibitors of binding or entry into cells for Lassa Virus; also: nearly all actives have a fitted effect of over 50% in size
Settings: Lassa virus pseudotype entry inhibition, cell reporter; activity change, negative = inhibition: at 37.9 µM (top of the series) unless noted
In the case of COc1cc(/C=N/NC(=S)NCCN2CCOCC2)ccc1O, the Potency is reported as inconclusive: 10 µM [inhibitor, partial curve, poor fit].
For Cc1ccc(CNC(=O)CN2C(=O)NC(C)(c3ccccc3Cl)C2=O)cc1 (centres undefined), the Potency was inconclusive: 3.16 µM [inhibitor, partial curve, poor fit].
With Cc1ccc(NC(=O)COC(=O)C2CC2)cc1Cl the Potency was inconclusive: 3.55 µM [activator, partial curve, poor fit].
With O=C(Cn1ncc2c3ccccc3n(Cc3ccccc3)c2c1=O)NCCCN1CCCCC1 the “activity change, negative = inhibition” value was inactive: 9.81% [at 46.1 µM].
For CC(/C=N/N1CCN(c2ccccn2)CC1)=C\c1ccccc1, the “activity change, negative = inhibition” value was inactive: -0.0427%.
With C=CCN(CC=C)C(=O)C(=O)c1cc(C)n(-c2ccc([N+](=O)[O-])cc2)c1C the Potency was inconclusive: 15.8 µM [inhibitor, partial curve, poor fit].
For CCc1noc(C)c1C(=O)Oc1ccc(N(C)S(=O)(=O)c2ccccc2)cc1, the Potency was inconclusive: 3.16 µM [inhibitor, full curve, poor fit].
With COc1cc(/C=N/NC(N)=S)ccc1OCC(=O)Nc1ccc(C)c(C)c1 the Potency was inconclusive: 8.91 µM [inhibitor, partial curve, poor fit].
For c1ccc2c(c1)oc1c(Nc3ccc4c(c3)OCO4)ncnc12, the Potency was inconclusive: 2 µM [activator, partial curve, poor fit].
For COc1ccc(C(=O)NNC(=O)c2ccccn2)cc1, the Potency was inconclusive: 0.651 µM [inhibitor, single point].
For CCSc1nnc(NC(=O)c2cccc(S(=O)(=O)N(C)c3ccccc3)c2)s1, the “activity change, negative = inhibition” value was inactive: 3.69%.
With Cc1ccc(NC(=O)CSc2nc3n[nH]c(C)c3c(=N)n2-c2ccccc2C)cc1C the Potency was inconclusive: 11.2 µM [inhibitor, partial curve, poor fit].
With CCCCOC(=O)CSc1nc(N)c(C#N)c(-c2ccc(OCC)cc2)c1C#N the “activity change, negative = inhibition” value was inactive: 21.4%.
With Clc1ccc(CNc2ncnc3[nH]ncc23)cc1Cl the Potency was active: 7.08 µM.
With NC(N)=N/N=C/c1ccccc1 the Potency was inconclusive: 2.06 µM [activator, full curve].
With COC(=O)c1ccccc1S(=O)(=O)Nc1ccc2cn[nH]c2c1 the “activity change, negative = inhibition” value was inactive: 8.09%.
For O=C(Nc1nnc(SCC(=O)N2CCOCC2)s1)c1ccccc1, the Potency was inconclusive: 13 µM [activator, partial curve, poor fit].
In the case of CC1CCCCN1CCCNC(=O)Cn1ncc2c3ccccc3n(Cc3ccccc3)c2c1=O (centres undefined), the “activity change, negative = inhibition” value is reported as inactive: 24.3% [at 46.1 µM].
For COc1ccccc1-c1nnc(-c2ccc(N3CCOCC3)cc2)o1, the “activity change, negative = inhibition” value was inactive: 0.245%.
With COC(CN(C(=O)CCl)C(C(=O)NC1CCCCC1)c1ccccc1C)OC (centres undefined) the Potency was inconclusive: 15.8 µM [inhibitor, single point].
In the case of CCN1C(=O)C2(C(C#N)=C(N)Oc3cc(C)oc(=O)c32)c2ccccc21 (centres undefined), the Potency is reported as inconclusive: 28.2 µM [activator, single point].
In the case of CC(C)(C)c1ccc(NC(=O)c2ccc(=O)[nH]n2)cc1, the Potency is reported as inconclusive: 0.794 µM [activator, partial curve, poor fit].
In the case of CC1CCN(CCCn2c(SCC(=O)Nc3ccccc3Cl)nc3ccccc3c2=O)CC1, the Potency is reported as active: 6.31 µM.
In the case of O=C(C1CC(c2ccccc2O)=NO1)N1CCCC1 (centres undefined), the “activity change, negative = inhibition” value is reported as inactive: 13.7%.
In the case of O=C(Nc1ccc2ncccc2c1)c1ccccc1Br, the Potency is reported as inconclusive: 1.26 µM [activator, single point].
For Cc1noc(C)c1COc1ccc(C(=O)NCCc2ccc(S(N)(=O)=O)cc2)cc1, the Potency was inconclusive: 4.47 µM [activator, partial curve, poor fit].
For CCCCCn1c(=O)[nH]c2cc(C(=O)NCCCN3CCC(C)CC3)ccc2c1=O, the “activity change, negative = inhibition” value was inactive: -19.9%.
For CC(=O)Nc1ccc(NC(=O)CSc2nnc(NC(=O)c3ccco3)s2)cc1, the Potency was inconclusive: 0.224 µM [inhibitor, full curve, poor fit].
With COc1cccc(NC(=O)CN(C)C(=O)CNC(=O)c2ccc3ccccc3c2)c1 the “activity change, negative = inhibition” value was inactive: 8.48%.
With c1ccc(-c2ccccc2OCCCCN2CCCCC2)cc1 the Potency was inconclusive: 1.12 µM [inhibitor, partial curve].
In the case of Cc1ccc(NC2CCCN(C(=O)c3ccc4[nH]ccc4c3)C2)cc1C (centres undefined), the Potency is reported as inconclusive: 20 µM [inhibitor, partial curve, poor fit].
In the case of O=C(CSc1nnc(-c2ccccc2F)o1)NC1CCCCC1, the Potency is reported as inconclusive: 14.1 µM [activator, partial curve, poor fit].
In the case of CCCCCCSc1nnc2[nH]c(=O)cc(N)n12, the “activity change, negative = inhibition” value is reported as inactive: 0.271%.
In the case of CCCCOC(=O)c1ccc(S(N)(=O)=O)o1, the Potency is reported as inconclusive: 14.1 µM [activator, partial curve, poor fit].
For CCOCCCN(C)C1CCN(C(=O)c2oc3ccccc3c2NC(=O)COc2ccc(F)cc2)CC1, the Potency was inconclusive: 12.6 µM [inhibitor, single point].
With COc1cccc(CNCc2ccc(SC)cc2)c1OC the “activity change, negative = inhibition” value was inactive: 4.38%.
In the case of CCOC(=O)Cc1csc(NC(=O)Nc2ccc(OC(F)(F)F)cc2)n1, the Potency is reported as inconclusive: 7.94 µM [inhibitor, partial curve, poor fit].
For COc1ccc(/C=C/C(=O)c2ccccc2)c(OC)c1, the Potency was inconclusive: 4.47 µM [activator, partial curve, poor fit].
In the case of COc1cc(/C=N/n2cnc3scc(-c4cccs4)c3c2=O)cc(OC)c1OC, the Potency is reported as inconclusive: 2.24 µM [inhibitor, full curve].
In the case of O=C(Nc1ccc(Cl)c(C(F)(F)F)c1)c1ccncc1, the Potency is reported as inconclusive: 1 µM [inhibitor, partial curve, poor fit].
In the case of C/C(=N/NC(=O)c1ccc(C(C)(C)C)cc1)c1ccccn1, the Potency is reported as inconclusive: 5.62 µM [inhibitor, partial curve, poor fit].
In the case of COCCn1c(SCC(=O)Nc2ccc(NC(C)=O)cc2)nc2c([nH]c3ccccc32)c1=O, the Potency is reported as inconclusive: 0.708 µM [activator, partial curve].
For O=c1cc(-c2c(F)c(F)c(F)c(F)c2F)oc2ccccc12, the Potency was inconclusive: 11.6 µM [inhibitor, partial curve, poor fit].
For COc1ccc(S(=O)(=O)N2CCOCC2)cc1NC(=O)Cc1sc(C)nc1-c1ccc(F)cc1, the Potency was inconclusive: 1.41 µM [inhibitor, full curve, poor fit].
In the case of COc1cc(-c2nc3ccccc3s2)ccc1O, the Potency is reported as inconclusive: 2.91 µM [activator, full curve].
In the case of COc1ccc(NC(=O)CC(C)C)c([N+](=O)[O-])c1, the Potency is reported as inconclusive: 7.08 µM [activator, partial curve, poor fit].
With O=S(=O)(Nc1cccc2ccccc12)c1cccs1 the “activity change, negative = inhibition” value was inactive: 24% [at 46.1 µM].
With O=C(Nc1cccc(F)c1)c1ccc(CSc2ccccc2)o1 the Potency was active: 5.17 µM.
With COc1ccc2c(c1)C(=O)[C@H](O)[C@@H](c1ccc(OC)c(Br)c1)O2 the Potency was inconclusive: 29.1 µM [inhibitor, single point].
In the case of CSc1nnc(C)c(/C=C/Nc2ccc(F)cc2F)n1, the Potency is reported as inconclusive: 8.91 µM [inhibitor, partial curve, poor fit].
In the case of O=C(CNC(=O)c1cccc(S(=O)(=O)N2CCc3ccccc32)c1)Nc1ccccc1Br, the Potency is reported as inconclusive: 4.47 µM [inhibitor, full curve, poor fit].
In the case of COc1cccc(NC(=O)N2CCC(NC(=O)c3ccco3)CC2)c1, the “activity change, negative = inhibition” value is reported as inactive: 3.29%.
In the case of Cc1ccc(S(=O)(=O)NCCC(=O)Nc2ccc(Cl)cc2C(=O)c2ccccc2)cc1, the Potency is reported as inconclusive: 28.2 µM [inhibitor, single point].
With Cc1cc(NC(=O)c2cc(-c3ccccc3)on2)n(-c2ccccc2)n1 the “activity change, negative = inhibition” value was inactive: 1.65%.
With Cc1cc(NC(=O)COC(=O)COc2ccc(Cl)cc2C)c([N+](=O)[O-])cc1C the Potency was inconclusive: 29.1 µM [activator, partial curve, poor fit].
With Cc1ccc(/C=C2\C(=O)NC(=S)N(c3ccccc3F)C2=O)s1 the Potency was inconclusive: 35.5 µM [inhibitor, single point].
For Cc1ccc(-n2nc(C)c3c(C)c(CCC(=O)NCc4ccc(Cl)cc4)c(C)nc32)cc1, the “activity change, negative = inhibition” value was inactive: 1.6% [at 46.1 µM].
In the case of COc1ccc(-c2nc3ccccc3s2)cc1NC(=O)c1cccc(F)c1, the “activity change, negative = inhibition” value is reported as inactive: 1.84% [at 46.1 µM].
For Cc1ccsc1C(=O)OCc1cc(=O)n2ccsc2n1, the Potency was inconclusive: 35.5 µM [inhibitor, partial curve, poor fit].
For CCC(=O)NC(c1cccs1)c1cc([N+](=O)[O-])c2cccnc2c1O (centres undefined), the Potency was inconclusive: 20.6 µM [inhibitor, single point].
With Cc1cc(C)c2c(N)c(C(=O)C(C)(C)C)sc2n1 the “activity change, negative = inhibition” value was inactive: -0.649%.
With CCc1cccc(C)c1Nc1c(-c2ccc(N(C)C)cc2)nc2cnccn12 the Potency was inconclusive: 22.4 µM [inhibitor, single point].
With Cc1cc(C)cc(NC(=S)N(CCN2CCCCC2)Cc2ccco2)c1 the Potency was inconclusive: 11.2 µM [inhibitor, single point].
For Cc1nc(N=C(N)N)nc2ccccc12, the Potency was inconclusive: 11.2 µM [inhibitor, partial curve, poor fit].
With CC(OC(=O)Cc1c[nH]c2ccccc12)C(=O)Nc1ccc(S(N)(=O)=O)cc1 (centres undefined) the “activity change, negative = inhibition” value was inactive: 28.2%.
For CC(=O)Nc1nc(NC(=O)/C=C/c2ccccc2)n(-c2ccccc2)n1, the Potency was inconclusive: 29.1 µM [inhibitor, single point].
For CCCn1cnc2cc(NCc3cccs3)ccc21, the “activity change, negative = inhibition” value was inactive: -0.923%.
In the case of COc1cccc(NCc2nnc3n2CCCCC3)c1, the Potency is reported as inconclusive: 35.5 µM [activator, single point].
In the case of Cc1ccc(-c2nc(CS(=O)(=O)CC(=O)N3CCN(c4ccccc4)CC3)c(C)o2)cc1, the Potency is reported as inconclusive: 35.5 µM [inhibitor, single point].

Source: PubChem BioAssay AID540256 (National Center for Advancing Translational Sciences (NCATS), 2011)
% is scaled to controls: 0 for no effect and ±100 for the full control effect; potency is read from the fitted curve at half-maximal effect.
